Experimental data: PubChem BioAssay AID1224830 (NIAID, 2016)
The deposit covers about 18,000 reagents; below is a random part of them. About 2,900 of them (16%) were called active. 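Calls are made per well; low scores hint the gene aids the LPS response, high scores that it dampens it.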 Unmarked entries are inactive. Repeated entries: four replicate wells of each siRNA pool.

- Test: 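Genes whose knock-down alters the TNF-alpha reporter response to LPS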 (primary screen)
- System: human THP-1 monocytic leukaemia cells, TNF dual-luciferase reporter clone, PMA-differentiated to macrophage-like cells
- Knock-down reagent: siRNA pool against human genes, 50 nM
- Duration: LPS for 4 h, given about 3 days after siRNA transfection
- Challenge: bacterial LPS (TLR4 ligand), 10 ng/ml
- Measurement: 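TNF firefly reporter luminescence divided by renilla, normalised to the plate median, then turned into a robust z-score for each replicate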
- Scale: TNF reporter robust z-score: higher = stronger TNF reporter response to LPS
- Rule for the call: 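a well is active when its z-score exceeds 2.8 or falls below -1.5; control wells carry no call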

After knock-down of HUS1B the results were TNF reporter robust z-score 0.08.
Against HUS1B the deposit lists TNF reporter robust z-score 0.11.
Against HUS1B the deposit lists TNF reporter robust z-score 0.09.
Depletion of HUS1B resulted in: TNF reporter robust z-score 0.43.
Knock-down of UHRF2 gave: TNF reporter robust z-score -0.07.
Silencing of UHRF2 gave: TNF reporter robust z-score 0.5.
Against UHRF2, the values are TNF reporter robust z-score -0.88.
With knock-down of UHRF2 the results were TNF reporter robust z-score -0.78.
Depletion of DNAAF10 came out at: TNF reporter robust z-score -0.29.
DNAAF10 showed TNF reporter robust z-score -1.04.
Silencing of DNAAF10 came out at: TNF reporter robust z-score -0.67.
For DNAAF10, the values are TNF reporter robust z-score -0.25.
Against CDY2B, the values are TNF reporter robust z-score 0.12.
CDY2B scored TNF reporter robust z-score 0.06.
Knock-down of CDY2B came out at: TNF reporter robust z-score -1.3.
Against CDY2B, the entry reads TNF reporter robust z-score -1.28.
Depletion of CHPF gave: TNF reporter robust z-score 3.28 (active).
After knock-down of CHPF, the record shows TNF reporter robust z-score 0.05.
Depletion of CHPF resulted in: TNF reporter robust z-score 1.
Knock-down of CHPF resulted in: TNF reporter robust z-score 3.21 (active).
Depletion of BARHL2 resulted in: TNF reporter robust z-score 0.14.
BARHL2 showed TNF reporter robust z-score 0.45.
Against BARHL2 the deposit lists TNF reporter robust z-score 1.75.
Silencing of BARHL2 resulted in: TNF reporter robust z-score 1.15.
Against THYN1, the entry reads TNF reporter robust z-score -1.46.
Against THYN1, the entry reads TNF reporter robust z-score 0.88.
THYN1 scored TNF reporter robust z-score -0.86.
Depletion of THYN1 resulted in: TNF reporter robust z-score 0.23.
Depletion of SESN3 gave: TNF reporter robust z-score -1.46.
Against SESN3 the deposit lists TNF reporter robust z-score -1.1.
SESN3 scored TNF reporter robust z-score -0.83.
Against SESN3 the deposit lists TNF reporter robust z-score -1.27.
For H2AC25 the deposit lists TNF reporter robust z-score 1.67.
H2AC25 gave TNF reporter robust z-score 2.14.
Against H2AC25 the deposit lists TNF reporter robust z-score 1.74.
With knock-down of H2AC25, the screen gave TNF reporter robust z-score 4.14 (active).
Against CLEC17A, the entry reads TNF reporter robust z-score 0.77.
CLEC17A showed TNF reporter robust z-score 1.01.
Knock-down of CLEC17A came out at: TNF reporter robust z-score 1.48.
With knock-down of CLEC17A, the record shows TNF reporter robust z-score 0.5.
EMB gave TNF reporter robust z-score -0.75.
EMB showed TNF reporter robust z-score 0.21.
Depletion of EMB gave: TNF reporter robust z-score -0.36.
EMB gave TNF reporter robust z-score -0.26.
BEND7 scored TNF reporter robust z-score -1.05.
Depletion of BEND7 came out at: TNF reporter robust z-score -0.59.
Depletion of BEND7 came out at: TNF reporter robust z-score -0.83.
Against BEND7 the deposit lists TNF reporter robust z-score -0.33.
